Data: patent publication US20030119102A1
No constants are given. Whether binding was seen depends on the method and setting. For some assays here: Binding seen in cells or lysates may run through a third protein. Some results given as binding are weak or reduced against the parent protein; the word gives no strength.

Columns and labels:
[1] = molecular target: T1, {GAL4 DNA-binding domain}-{rKv4.3(1-180)} fusion (rat) (UniProt P04386+Q62897); test: yeast two-hybrid screen, retransformation and specificity tests
[2] = molecular target: T2, rat Kv4.2 α-subunit (rat) (UniProt Q63881); test: immunofluorescence of cotransfected COS-1 and CHO cells
T2 sequence (looked up): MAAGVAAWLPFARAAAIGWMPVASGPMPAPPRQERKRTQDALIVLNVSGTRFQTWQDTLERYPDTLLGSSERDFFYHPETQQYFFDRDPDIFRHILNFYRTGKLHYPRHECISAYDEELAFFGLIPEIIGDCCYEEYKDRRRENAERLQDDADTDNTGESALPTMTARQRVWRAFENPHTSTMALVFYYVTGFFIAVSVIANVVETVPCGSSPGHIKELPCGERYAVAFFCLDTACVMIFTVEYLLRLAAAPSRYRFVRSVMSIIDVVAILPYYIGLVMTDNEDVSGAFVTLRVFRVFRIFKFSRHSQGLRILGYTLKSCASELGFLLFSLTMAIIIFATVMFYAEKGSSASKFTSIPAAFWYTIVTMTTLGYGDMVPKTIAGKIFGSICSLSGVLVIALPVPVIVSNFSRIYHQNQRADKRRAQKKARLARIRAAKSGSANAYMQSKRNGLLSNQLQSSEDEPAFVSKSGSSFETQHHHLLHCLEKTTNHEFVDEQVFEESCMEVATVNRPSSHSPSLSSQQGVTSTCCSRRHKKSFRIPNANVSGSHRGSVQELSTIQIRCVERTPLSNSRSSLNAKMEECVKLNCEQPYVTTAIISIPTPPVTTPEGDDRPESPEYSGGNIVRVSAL

[3] = molecular target: T3, rat Kv4.3 α-subunit (rat) (UniProt Q62897); test: as above
T3 sequence (looked up): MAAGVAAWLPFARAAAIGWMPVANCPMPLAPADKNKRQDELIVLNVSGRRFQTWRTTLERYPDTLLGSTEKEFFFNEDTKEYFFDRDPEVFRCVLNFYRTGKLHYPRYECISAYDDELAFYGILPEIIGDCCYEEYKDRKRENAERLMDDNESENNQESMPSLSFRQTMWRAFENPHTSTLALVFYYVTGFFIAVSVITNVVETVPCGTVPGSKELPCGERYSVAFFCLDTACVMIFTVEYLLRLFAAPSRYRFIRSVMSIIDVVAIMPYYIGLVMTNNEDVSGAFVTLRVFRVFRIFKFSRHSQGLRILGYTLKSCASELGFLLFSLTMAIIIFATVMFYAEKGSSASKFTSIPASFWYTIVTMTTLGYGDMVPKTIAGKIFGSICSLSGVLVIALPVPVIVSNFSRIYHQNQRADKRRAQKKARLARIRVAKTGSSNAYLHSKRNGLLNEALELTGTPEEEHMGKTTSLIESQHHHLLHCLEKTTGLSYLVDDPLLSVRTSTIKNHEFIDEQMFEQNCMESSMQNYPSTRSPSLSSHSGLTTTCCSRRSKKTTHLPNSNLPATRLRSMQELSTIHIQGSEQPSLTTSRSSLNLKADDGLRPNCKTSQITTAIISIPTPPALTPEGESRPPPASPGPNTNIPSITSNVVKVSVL

[4] = molecular target: T2, rat Kv4.2 α-subunit (rat); test: immunoprecipitation from rat brain membranes
[5] = molecular target: T3, rat Kv4.3 α-subunit (rat); test: immunoprecipitation from rat brain membranes
[6] = molecular target: T2, rat Kv4.2 α-subunit (rat); test: reciprocal co-immunoprecipitation from lysates of cotransfected cells
[7] = molecular target: T3, rat Kv4.3 α-subunit (rat); test: as above
[8] = molecular target: T4, chimeric Kv4.3 subunit (Kv4.3ch) (rat) (UniProt Q62897); test: triple-label immunofluorescence and reciprocal co-immunoprecipitation, COS-1 cells
T4 sequence: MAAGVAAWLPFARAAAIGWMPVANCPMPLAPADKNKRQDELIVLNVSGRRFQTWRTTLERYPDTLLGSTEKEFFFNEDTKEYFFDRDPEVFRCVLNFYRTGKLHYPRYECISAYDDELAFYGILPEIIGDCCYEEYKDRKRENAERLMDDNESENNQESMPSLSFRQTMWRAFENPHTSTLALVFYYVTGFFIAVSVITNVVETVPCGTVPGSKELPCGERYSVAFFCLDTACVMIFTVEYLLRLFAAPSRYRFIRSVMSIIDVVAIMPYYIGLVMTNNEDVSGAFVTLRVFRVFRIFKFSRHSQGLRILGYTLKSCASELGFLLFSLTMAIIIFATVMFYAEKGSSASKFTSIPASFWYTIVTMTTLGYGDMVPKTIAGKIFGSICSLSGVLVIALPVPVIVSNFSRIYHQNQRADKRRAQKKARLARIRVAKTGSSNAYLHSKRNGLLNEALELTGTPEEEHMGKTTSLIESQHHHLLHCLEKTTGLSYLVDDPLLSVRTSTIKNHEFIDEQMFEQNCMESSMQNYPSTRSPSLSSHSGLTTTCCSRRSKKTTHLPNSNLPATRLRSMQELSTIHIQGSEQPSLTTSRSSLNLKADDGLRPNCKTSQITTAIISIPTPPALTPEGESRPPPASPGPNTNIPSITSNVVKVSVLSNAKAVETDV

[9] = molecular target: T2, rat Kv4.2 α-subunit (rat); test: reciprocal co-immunoprecipitation from rat brain synaptic membranes
[10] = molecular target: T3, rat Kv4.3 α-subunit (rat); test: as above
[11] = molecular target: T1, {GAL4 DNA-binding domain}-{rKv4.3(1-180)} fusion (rat); test: yeast two-hybrid screen
rKv4.2N (rat) = molecular target: T5, rKv4.2N (rat) (UniProt Q63881); test: yeast two-hybrid
T5 sequence (looked up): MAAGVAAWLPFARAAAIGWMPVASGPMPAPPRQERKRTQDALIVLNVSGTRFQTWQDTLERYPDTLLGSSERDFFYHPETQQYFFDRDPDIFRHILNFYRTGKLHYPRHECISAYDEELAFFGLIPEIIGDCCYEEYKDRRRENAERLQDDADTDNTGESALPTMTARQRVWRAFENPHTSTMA

[12] = molecular target: T1, {GAL4 DNA-binding domain}-{rKv4.3(1-180)} fusion (rat); test: yeast two-hybrid

Measured: binding

B1: rat 1v (protein)
chain: MPARVLLAYPGTEMLTQGESEGLQTLGIVVVLCSSLKLLHYLGLIDLSDDKIEDDLEMTMVCHRPEGLEQLEAQTNFTKRELQVLYRGFKNECPSGVVNEETFKQIYAQFFPHGDASTYAHYLFNAFDTTQTGSVKFEDFVTALSILLRGTVHEKLRWTFNLYDINKDGYINKEEMMDIVKAIYDMMGKYTYPVLKEDTPRQHVDVFFQKMDKNKDGIVTLDEFLESCQEDDNIMRSLQLFQNVM
binds: [1] | [2] | [3] | [4] | [5] | [6] | [7] | [8] | [9] | [10]

B2: rat 8t (protein)
chain: MNHCPRRCRSPLGQAARSLYQLVTGSLSPDSVEDEFELSTVCHRPEGLEQLQEQTKFTRRELQVLYRGFKNECPSGIVNEENFKQIYSQFFPQGDSSNYATFLFNAFDTNHDGSVSFEDFVAGLSVILRGTIDDRLSWAFNLYDLNKDGCITKEEMLDIMKSIYDMMGKYTYPALREEAPREHVESFFQKMDRNKDGVVTIEEFIESCQQDENIMRSMQLFDNVI
binds: [1]

B3: rat 29x (protein)
chain: ARLPAPEHARQQPLLSGPEPGSSARVPVPGVASRRQPRGGKPPSGDGLESGPSPRPLLHARGEAGLHRQSGRVPHTGTAYFADEPTEAQAPGGFCVSPSLLGVRWPACATRTPGSLPLSPPSAQPRTLWPTPPAGPSSRMVARNQVAADNAISPASEPRRRPEPSSSSSSSSPAAPARPRPCPVVPAPAPGDTHFRTFRSHSDYRRITRTSALLDACGFYWGPLSVHGAHERLRAEPVGTFLVRDSRQRNCFFALSVKMASGPTSIRVHFQAGRFHLDGSRETFDCLFELLEHYVAAPRRMLGAPLRQRRVRPLQELCRQRIVAAVGRENLARIPLNPVLRDYLSSFPFQI
binds: [11] | rKv4.2N (rat) | [12]
